Experimental findings from article PMC9652315 are described below.

Chains of the proteins cited; added tags and fusions are not shown.
UniProt P60953: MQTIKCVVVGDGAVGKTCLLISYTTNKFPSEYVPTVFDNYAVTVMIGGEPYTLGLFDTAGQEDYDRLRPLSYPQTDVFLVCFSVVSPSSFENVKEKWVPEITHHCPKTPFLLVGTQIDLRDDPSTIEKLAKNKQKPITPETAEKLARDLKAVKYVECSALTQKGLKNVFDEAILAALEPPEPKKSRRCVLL

The assay deals with T1, pTINCR-HA.
T1 sequence: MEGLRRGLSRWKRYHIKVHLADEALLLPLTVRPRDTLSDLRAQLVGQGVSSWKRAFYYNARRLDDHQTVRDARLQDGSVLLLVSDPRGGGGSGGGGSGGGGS
Put plainly: affinity purification with mass spectrometry; 3 mg lysate (50 mM Tris-HCl pH 7.5-8, 150 mM NaCl, 1% Triton X-100) immunoprecipitated with monoclonal HA-tag antibody overnight, Protein A magnetic beads, eluted with HA peptide; LC-MS; CRAPome analysis.

These are yes or no findings as the source states them, for the method shown. Binding seen in cells or lysates may run through a third protein. These calls come from enrichment with a bait or labelling near it, and not all partners need be listed. Sequences can lack the tags named with a protein.

Take CDC42 (from UniProt P60953 1-191): the binding result is “binds”.
